Reference: ChEMBL document CHEMBL1250504, “Antihypertensive and antiarrhythmic properties of a para-hydroxy[bis(ortho-morpholinylmethyl)]phenyl-1,4-DHP compound: comparison with other compounds of the same kind and relationship with logP values” (Eur J Med Chem, 2010)

Assay: Octanol-water partition coefficient, log P of the compound

COC(=O)C1=C(C)NC(C)=C(C(=O)OC)C1c1ccccc1[N+](=O)[O-] [NIFEDIPINE] showed a logP of 2.4.
